## Library screen at single concentrations

Data taken from ChEMBL document CHEMBL3988442, “University of Dundee, Small-Polar-MMV Screening Library” (2021).

A: 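Whole-cell growth test on Mycobacterium tuberculosis, read after 3 days in glucose-containing 7H9 medium; the read-out is not stated. Tested at 50 µM. Higher reads as more growth inhibition (inferred: compounds with an IC50 in retests scored well above the rest). About 69,000 compounds were tested under these conditions; 1.1% (about 760) showed 50% or more at least once.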
B: 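Growth of Mycobacterium tuberculosis over 4 days (cholesterol / DPPC medium with tyloxapol); the read-out is not stated. Concentration: 50 µM. Higher reads as more growth inhibition (inferred: compounds with an IC50 in retests scored well above the rest). Of about 69,000 compounds tested this way, about 370 (0.54%) reached 50% or more in at least one test.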

The filed quantity is “Percent Effect” (%). The controls that fix the scale are not given in the record; negative values are as filed. This is an unselected part of the compounds tested. Two or more numbers in one place are separate tests of the same structure; such repeats can differ widely.

structure,A,B
O=C(O)C(F)(F)F.O=C(O)C(F)(F)F.[H][C@@]12CCN(C(=O)c3ccc(C)nc3)[C@]1([H])CCC(=O)N2CCN(C)C,-37.37% & -5.453%,-1.15%
CN1CCOC[C@H]1c1nc(-c2cccnc2)c[nH]1,61.91% & 17.59%,22.32%
Clc1ccc(-n2nnnc2C2(NCc3ccco3)CCCCC2)cc1,21.3%,1.887%
CCCc1nc(N2CC[C@@H](c3ccc4ccccc4c3)[C@H](O)C2)no1,-7.521%,-4.421%
Nc1nc2c(c(NCC(c3cccnc3)N3CCOCC3)n1)CCNC2 (centres unmarked),-25.55%,-17.8%
COC(=O)COc1nc(CC(C)C)c2c(c1C#N)CCCC2,-12.86%,-39.11%
O=C(O)C(F)(F)F.[H][C@@]12CCN(Cc3cc(C)on3)C[C@]1(C(=O)NC(C)C)CCO2,21.27%,2.991%
CCOCc1cncc2c1CCN(S(=O)(=O)c1ccc(C)cc1)C2,-3.083% & 16.02%,3.421%
Cn1cc(NC(=O)CNC(=O)N2CCN(c3ccccc3)CC2)cn1,11.13% & 37.35%,3.412%
[H][C@@]12COC[C@]1(COCc1cccnc1)CN(C(=O)c1ncccn1)C2,-13.55% & -5.423%,6.659% & -9.926%
N#Cc1cccc(NC2CC(=O)N(Cc3ccccc3Cl)C2)n1 (centres unmarked),-0.2623%,7.417%
Cc1ncc(CNC(=O)N(C)Cc2ccc([S+](C)[O-])cc2)s1 (centres unmarked),-0.9585% & -6.894%,-1.541%
CN(Cc1csc(-c2cccs2)n1)CC(O)CO (centres unmarked),-34.62% & -12.94%,-9.518%
CC(O)c1cccc(OCc2ccon2)c1 (centres unmarked),-13.61%,-1.676%
CCOCC1CCN(C(=O)C(c2ccccc2F)N(C)C)CC1 (centres unmarked),22.75%,67.06%
Cc1nc(C)c(C(=O)Nc2cc(N3CCC(C)CC3)ncn2)s1,19.41%,20.04%
CN(C)C(=O)CN1CCC2(CC1)CN(S(C)(=O)=O)Cc1ccccc1O2,-3.609%,8.55% & 3.617%
COCC1CCN(c2cc(C3CN(C)CCO3)nc(C)n2)CC1 (centres unmarked),-8.423%,-10.96%
CCOc1ccnc(N2CCN(C(=O)c3cccc(C#N)c3)CC2)n1,13.51%,5.067%
[H][C@@]12CN(S(C)(=O)=O)C[C@]1(C(=O)NC)CCC21CCN(C(=O)COC)CC1,-17.01%,-13.17%
O=c1[nH]c(-c2ccncc2)ncc1-c1ccnc(N2CCOCC2)n1,19.24%,-5.493%
CCC(CC)Cn1ncc(N2CCOCC2)cc1=O,8.185%,15.63%
[H][C@]12CN(Cc3nc(C)c[nH]3)CC[C@@]1(O)CCN(C(C)=O)C2,-8.963% & -0.6857%,-16.29%
CC(=O)NCC(=O)N1CCn2cc(CN(C)Cc3ccco3)nc2C1.O=C(O)C(F)(F)F,-10.11% & -21.88%,-19.87% & -17.85%
OC(CN1CCC(c2ccn[nH]2)CC1)c1ccc(F)cc1 (centres unmarked),-0.5366% & 14.35%,-31.27%
CN(C1CCN(C(=O)NCCc2ccc(F)cc2F)CC1)S(C)(=O)=O,12.65%,-11.06%
COCCN1CCN(C(=O)C[C@@H]2C[C@@H](C(C)C)[C@H](CO)C=C2C)CC1,1.841% & -2.306%,7.71%
Cc1ncccc1CNCC1CCc2nnc(C(C)C)n2C1 (centres unmarked),11.41%,-8.503%
FC(F)(F)CCc1ccnc(N2CCN(Cc3ccccn3)CC2)n1,-22.85%,4.97%
CCNc1ncc(C(=O)NC2CCSC2)cn1 (centres unmarked),-40.91%,-30.75%
CCn1nc(C)c2nc(C)nc(NCCc3ccccc3)c21,46.33% & 6.519%,11.02%
COc1c(C(N)=O)cn(C)c1-c1nc2cc(NC(C)=O)ccc2n1C,8.589%,1.609%
Cc1csc2c(=O)n(CCN3CCNCC3)cnc12,-37.28%,-20.14%
O=C1N(Cc2ccc(F)c(F)c2)CCCC1(O)CNCc1ncc[nH]1 (centres unmarked),-7.36%,0.2462%
CCN(Cc1ccncc1)Cc1cn(-c2ccccc2)nn1,7.082%,40.66%
COCCC(=O)N(CCC#N)c1ccc2c(c1)OCCO2,-9.515%,-21.31%
O=C(NC1COC2(CCN(CC3CCC3)CC2)C1)c1ccccn1.O=C(O)C(F)(F)F (centres unmarked),15.69% & -6.153%,-18.83% & -6.2%
CCOCC1CN(S(=O)(=O)c2ccccc2)Cc2nccn2C1 (centres unmarked),-2.823%,-29.73%
O=C(O)C(F)(F)F.[H][C@]12C[C@@H](C(=O)NCc3cccs3)CO[C@@]1([H])CCN(CCOC)C2,-13.87%,-25.14%
c1ccc(-c2nnc3ccc(N4CCC5(CCOC5)C4)nn23)cc1 (centres unmarked),-12.04% & -3.573%,-10.48%

For reference, 2 entries once more:

structure,A,B
Nc1nc2c(c(NCC(c3cccnc3)N3CCOCC3)n1)CCNC2 (centres unmarked),-25.55%,-17.8%
[H][C@@]12COC[C@]1(COCc1cccnc1)CN(C(=O)c1ncccn1)C2,-13.55% & -5.423%,6.659% & -9.926%